Reference: PMC5433425 (PeerJ, 2017)
Like-named read-outs stand apart in the source and are kept apart here. Further values from the same series stand in other lists.

Test system: E. coli AG100A

CC[n+]1c(-c2ccccc2)c2cc(N)ccc2c2ccc(N)cc21 [EtBr, ethidium bromide] gave an EtBr fluorescence (EtBr 2 µg/ml, cycle 27) of 75.9898, an EtBr fluorescence (EtBr 2 µg/ml, cycle 28) of 77.3832 and an EtBr fluorescence (EtBr 2 µg/ml, cycle 29) of 78.2202. For the same compound, the EtBr fluorescence (EtBr 2 µg/ml, cycle 30) was 79.962, the EtBr fluorescence (EtBr 3 µg/ml, cycle 1) was 23.6289 and the EtBr fluorescence (EtBr 3 µg/ml, cycle 2) was 31.0367. It also gave an EtBr fluorescence (EtBr 3 µg/ml, cycle 3) of 36.8789, an EtBr fluorescence (EtBr 3 µg/ml, cycle 4) of 42.0548 and an EtBr fluorescence (EtBr 3 µg/ml, cycle 5) of 46.8457. The EtBr fluorescence (EtBr 3 µg/ml, cycle 6) was 50.4969, the EtBr fluorescence (EtBr 3 µg/ml, cycle 7) was 53.739 and the EtBr fluorescence (EtBr 3 µg/ml, cycle 8) was 57.7. It also gave an EtBr fluorescence (EtBr 3 µg/ml, cycle 9) of 60.2188, an EtBr fluorescence (EtBr 3 µg/ml, cycle 10) of 63.6802 and an EtBr fluorescence (EtBr 3 µg/ml, cycle 11) of 66.3455. It also gave an EtBr fluorescence (EtBr 3 µg/ml, cycle 12) of 69.0775, an EtBr fluorescence (EtBr 3 µg/ml, cycle 13) of 71.7371 and an EtBr fluorescence (EtBr 3 µg/ml, cycle 14) of 74.2494. The EtBr fluorescence (EtBr 3 µg/ml, cycle 15) was 76.7699, the EtBr fluorescence (EtBr 3 µg/ml, cycle 16) was 78.313 and the EtBr fluorescence (EtBr 3 µg/ml, cycle 17) was 79.87. It also gave an EtBr fluorescence (EtBr 3 µg/ml, cycle 18) of 81.7847, an EtBr fluorescence (EtBr 3 µg/ml, cycle 19) of 83.689 and an EtBr fluorescence (EtBr 3 µg/ml, cycle 20) of 85.3511. For the same compound, the EtBr fluorescence (EtBr 3 µg/ml, cycle 21) was 87.0236, the EtBr fluorescence (EtBr 3 µg/ml, cycle 22) was 88.6448 and the EtBr fluorescence (EtBr 3 µg/ml, cycle 23) was 90.6444. The EtBr fluorescence (EtBr 3 µg/ml, cycle 24) was 91.9307, the EtBr fluorescence (EtBr 3 µg/ml, cycle 25) was 93.5789 and the EtBr fluorescence (EtBr 3 µg/ml, cycle 26) was 96.0079. It also gave an EtBr fluorescence (EtBr 3 µg/ml, cycle 27) of 98.0273, an EtBr fluorescence (EtBr 3 µg/ml, cycle 28) of 99.4521 and an EtBr fluorescence (EtBr 3 µg/ml, cycle 29) of 99.9756. The EtBr fluorescence (EtBr 3 µg/ml, cycle 30) was 100, the EtBr fluorescence (EtBr 4 µg/ml, cycle 1) was 31.8459 and the EtBr fluorescence (EtBr 4 µg/ml, cycle 2) was 43.4753. The EtBr fluorescence (EtBr 4 µg/ml, cycle 3) was 52.9128, the EtBr fluorescence (EtBr 4 µg/ml, cycle 4) was 60.4602 and the EtBr fluorescence (EtBr 4 µg/ml, cycle 5) was 67.4623. For the same compound, the EtBr fluorescence (EtBr 4 µg/ml, cycle 6) was 72.9436, the EtBr fluorescence (EtBr 4 µg/ml, cycle 7) was 78.0206 and the EtBr fluorescence (EtBr 4 µg/ml, cycle 8) was 82.7408. For the same compound, the EtBr fluorescence (EtBr 4 µg/ml, cycle 9) was 87.7788, the EtBr fluorescence (EtBr 4 µg/ml, cycle 10) was 91.8699 and the EtBr fluorescence (EtBr 4 µg/ml, cycle 11) was 96.4154. The EtBr fluorescence (EtBr 4 µg/ml, cycle 12) was 99.6125, the EtBr fluorescence (EtBr 4 µg/ml, cycle 13) was 100 and the EtBr fluorescence (EtBr 4 µg/ml, cycle 14) was 100. For the same compound, the EtBr fluorescence (EtBr 4 µg/ml, cycle 15) was 100, the EtBr fluorescence (EtBr 4 µg/ml, cycle 16) was 100 and the EtBr fluorescence (EtBr 4 µg/ml, cycle 17) was 100. For the same compound, the EtBr fluorescence (EtBr 4 µg/ml, cycle 18) was 100, the EtBr fluorescence (EtBr 4 µg/ml, cycle 19) was 100 and the EtBr fluorescence (EtBr 4 µg/ml, cycle 20) was 100. The EtBr fluorescence (EtBr 4 µg/ml, cycle 21) was 100, the EtBr fluorescence (EtBr 4 µg/ml, cycle 22) was 100 and the EtBr fluorescence (EtBr 4 µg/ml, cycle 23) was 100. The EtBr fluorescence (EtBr 4 µg/ml, cycle 24) was 100, the EtBr fluorescence (EtBr 4 µg/ml, cycle 25) was 100 and the EtBr fluorescence (EtBr 4 µg/ml, cycle 26) was 100. The EtBr fluorescence (EtBr 4 µg/ml, cycle 27) was 100, the EtBr fluorescence (EtBr 4 µg/ml, cycle 28) was 100 and the EtBr fluorescence (EtBr 4 µg/ml, cycle 29) was 100. It also gave an EtBr fluorescence (EtBr 4 µg/ml, cycle 30) of 100, an EtBr fluorescence (EtBr 5 µg/ml, cycle 1) of 43.7119 and an EtBr fluorescence (EtBr 5 µg/ml, cycle 2) of 58.937. For the same compound, the EtBr fluorescence (EtBr 5 µg/ml, cycle 3) was 72.1422, the EtBr fluorescence (EtBr 5 µg/ml, cycle 4) was 81.4934 and the EtBr fluorescence (EtBr 5 µg/ml, cycle 5) was 91.0328. It also gave an EtBr fluorescence (EtBr 5 µg/ml, cycle 6) of 98.7227, an EtBr fluorescence (EtBr 5 µg/ml, cycle 7) of 100 and an EtBr fluorescence (EtBr 5 µg/ml, cycle 8) of 100. For the same compound, the EtBr fluorescence (EtBr 5 µg/ml, cycle 9) was 100, the EtBr fluorescence (EtBr 5 µg/ml, cycle 10) was 100 and the EtBr fluorescence (EtBr 5 µg/ml, cycle 11) was 100. The EtBr fluorescence (EtBr 5 µg/ml, cycle 12) was 100, the EtBr fluorescence (EtBr 5 µg/ml, cycle 13) was 100 and the EtBr fluorescence (EtBr 5 µg/ml, cycle 14) was 100. The EtBr fluorescence (EtBr 5 µg/ml, cycle 15) was 100, the EtBr fluorescence (EtBr 5 µg/ml, cycle 16) was 100 and the EtBr fluorescence (EtBr 5 µg/ml, cycle 17) was 100. It also gave an EtBr fluorescence (EtBr 5 µg/ml, cycle 18) of 100, an EtBr fluorescence (EtBr 5 µg/ml, cycle 19) of 100 and an EtBr fluorescence (EtBr 5 µg/ml, cycle 20) of 100. For the same compound, the EtBr fluorescence (EtBr 5 µg/ml, cycle 21) was 100, the EtBr fluorescence (EtBr 5 µg/ml, cycle 22) was 100 and the EtBr fluorescence (EtBr 5 µg/ml, cycle 23) was 100. The EtBr fluorescence (EtBr 5 µg/ml, cycle 24) was 100, the EtBr fluorescence (EtBr 5 µg/ml, cycle 25) was 100 and the EtBr fluorescence (EtBr 5 µg/ml, cycle 26) was 100. The EtBr fluorescence (EtBr 5 µg/ml, cycle 27) was 100, the EtBr fluorescence (EtBr 5 µg/ml, cycle 28) was 100 and the EtBr fluorescence (EtBr 5 µg/ml, cycle 29) was 100. For the same compound, the EtBr fluorescence (EtBr 5 µg/ml, cycle 30) was 100.
